PubChem BioAssay AID2685 (National Center for Advancing Translational Sciences (NCATS), 2010)
In all, about 320,000 compounds went through this assay and about 2,100 (0.66%) were called active. Inconclusive results, whose numbers are uncertain, are shown with a selection of clear calls. The call rests on the fitted dose curve; in most records, active means well fitted inhibition curve with a large enough effect in the signal ratio, with a control signal flat (not every such curve was filed as active); inconclusive means small, poorly fitted or top-dose-only effect, or effect the other way, or a change in a side signal; inactive means flat fitted curve, though single readings scatter; the % refers to the signal ratio. Where the call is inconclusive, the potency comes from a doubtful curve fit.
On the % scale 0 is the no-effect control and ±100 the full control effect; potency means the concentration at half of the fitted maximal effect.

Assay: qHTS Assay for Lipid Storage Modulators in Drosophila S3 Cells
Conditions: BODIPY lipid droplet fluorescence, 18-24 h, cells fed with added oleic acid; lipid storage change, negative = inhibition: at 46.1 µM (top of the series) unless noted
Outline: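 Drosophila S3 cells loaded with oleic acid (400 uM, as added) and compounds at several concentrations; lipid droplets imaged by 488-nm laser-scanning cytometry, 500–530 nm intensity and object ratio to cell channel. Percent activity normalized to 20 uM Triacsin C.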
For CCn1c(/C=C2\C(=O)Nc3ccccc32)nc2ccccc2c1=O, the lipid storage change, negative = inhibition was inconclusive: -2.31%. With COc1ccccc1CN1CC(C(=O)N2CCCCO2)CCC1=O (centres undefined) the Potency was inconclusive: 29.1 µM [activator, single point]. For Cc1ccc(OCC(=O)Nc2nnc(S(=O)(=O)N3CCCCCC3)s2)cc1, the lipid storage change, negative = inhibition was inconclusive: 23.1%. In the case of Cc1nn(C(=O)c2ccco2)c(C)c1Br, the Potency is reported as inconclusive: 1.3 µM [falling, full curve, poor fit]. In the case of CN(CC(=O)Nc1ccc(Cl)c(C(F)(F)F)c1)C(=O)C1CCC1, the Potency is reported as inconclusive: 16.4 µM [activator, single point]. In the case of COc1ccc(CCN(Cc2cc3cccc(C)c3[nH]c2=O)C(=O)N2CCCC2)cc1OC, the Potency is reported as inconclusive: 2.06 µM [activator, partial curve]. For COc1ccc(OC)c(-c2nc3ccccc3nc2-c2ccccc2)c1, the lipid storage change, negative = inhibition was inconclusive: 2.39%. In the case of O=S(=O)(O)c1cccc(N=Nc2c(O)ccc3ccccc23)c1, the lipid storage change, negative = inhibition is reported as inconclusive: -4.37%. For COc1ccc2nc(SCc3nc(N)nc(Nc4ccccc4)n3)[nH]c2c1, the Potency was inconclusive: 20.6 µM [activator, single point]. In the case of O=C(NCCN1CCOCC1)C1CCC(CNS(=O)(=O)c2ccccc2)CC1 (centres undefined), the lipid storage change, negative = inhibition is reported as inconclusive: 3.76%. For COc1ccc([C@@H]2[C@@H]3C(=O)N(C(C)(C)C)C(=O)[C@@H]3[C@]3(C)C(=O)N(c4cccc(F)c4)C(=O)N23)cc1, the Potency was inconclusive: 3.66 µM [activator, full curve]. With S=C(c1c[nH]c2ccccc12)N1CCCC1 the lipid storage change, negative = inhibition was inconclusive: -7.17%. With O=C(CCCn1c(=S)[nH]c2ccc(Br)cc2c1=O)NCc1ccccn1 the Potency was inconclusive: 29.1 µM [falling, single point]. In the case of Cc1cc([N+](=O)[O-])nn1Cc1noc(C(=O)NCCc2ccccn2)n1, the Potency is reported as inconclusive: 0.13 µM [activator, full curve, poor fit]. With O=C(NCN1CCc2ccccc2C1)c1cnccn1 the lipid storage change, negative = inhibition was inconclusive: -0.895%. For COc1ccc(CCNC(=S)N2CCN(S(=O)(=O)c3cccc(F)c3)CC2)cc1, the lipid storage change, negative = inhibition was inconclusive: 7.05%. With CCCCCCCCCCCC(=O)NC(Cc1ccc(OC)c([N+](=O)[O-])c1)C(=O)O (centres undefined) the lipid storage change, negative = inhibition was inconclusive: -11%. With COCC(C)NC(=O)/C(=C/c1ccccc1)c1ccccc1 (centres undefined) the lipid storage change, negative = inhibition was inconclusive: 9.12%. With CCOC(=O)c1c(NC(C)=O)sc(/C(C)=N/Nc2ccc(C(=O)O)cc2)c1C the Potency was inconclusive: 1.3 µM [falling, full curve, poor fit]. With Cc1ccc(Sc2cnc(N)nc2C)cc1 the lipid storage change, negative = inhibition was inconclusive: -46%. With Cc1cc(C(=O)NNC(=O)c2cccs2)nn1C(C)(C)C the lipid storage change, negative = inhibition was inconclusive: 27.6%. In the case of COCCNC(=O)C(=O)Nc1ccc(Cl)cc1C, the lipid storage change, negative = inhibition is reported as inconclusive: 9.98%. In the case of COC(=O)C1CCN(c2cc(=O)n(-c3ccccc3Cl)c(=O)[nH]2)CC1, the lipid storage change, negative = inhibition is reported as inconclusive: 22.7%. In the case of CCc1ccc(NC(=O)CC2C(=O)N(c3ccc(C)cc3)C(=O)N2C2CC2)cc1 (centres undefined), the lipid storage change, negative = inhibition is reported as inconclusive: 8.8%. For CC1CCCC(C)N1c1nnc(NC(=O)c2cc(-c3ccc(Br)cc3)on2)s1 (centres undefined), the lipid storage change, negative = inhibition was inconclusive: 21.1%. In the case of O=C(COc1ccccc1Cl)Nc1ccc2c(c1)C(=O)NC2=O, the Potency is reported as inconclusive: 29.1 µM [activator, single point]. In the case of CCN(CC)S(=O)(=O)c1ccc(-c2nnc(SCC(=O)Nc3ccc4c(c3)OCO4)o2)cc1, the Potency is reported as inconclusive: 1.46 µM [activator, full curve]. With O=c1ccc2cc3c4c(c2o1)CCCN4CCC3 the lipid storage change, negative = inhibition was inconclusive: 8.95%. With CCOc1ccc(N(CC(=O)Nc2c(C)cccc2C)S(=O)(=O)c2c(C)[nH]c(=O)[nH]c2=O)cc1 the lipid storage change, negative = inhibition was inconclusive: -2.23%. With COC(=O)c1ccc(OCC(O)CN2CCOCC2)cc1 (centres undefined) the Potency was inconclusive: 23.1 µM [activator, partial curve, poor fit]. With COC(=O)C1=C(O)C(C(=O)OC)C(c2ccc(C)cc2)C(C#N)(C#N)C1c1ccc(C)cc1 (centres undefined) the lipid storage change, negative = inhibition was inconclusive: -23.3%. For O=c1[nH]nc(-c2ccc(F)cc2)cc1Cc1cccs1, the Potency was inconclusive: 23.1 µM [activator, single point]. With CCCCCn1c(N2CCN(c3cccc(Cl)c3)CC2)nc2c1c(=O)[nH]c(=O)n2C the Potency was inconclusive: 29.1 µM [falling, single point]. For COC(=O)CCCC[C@H]1SC[C@H]2NC(=O)N[C@]21O, the lipid storage change, negative = inhibition was inconclusive: 3.87%. For CCN(CC)S(=O)(=O)c1ccc(N=NC2=C(O)CC(C)(C)CC2=O)cc1, the Potency was inconclusive: 8.2 µM [activator, partial curve, poor fit]. With Nc1cc(-c2ccc(Br)cc2)[nH]n1 the lipid storage change, negative = inhibition was inconclusive: -1.74%. With O=C(O)C1C2C=CC(CC2)C1C(=O)O (centres undefined) the Potency was inconclusive: 1.46 µM [falling, partial curve]. For COc1ccc(C(=O)NC2CCN(C(=S)NCc3ccco3)CC2)cc1, the lipid storage change, negative = inhibition was inconclusive: 45.1%. For CCSc1cc(N2CCCC2)nc(-c2ccccc2)n1, the lipid storage change, negative = inhibition was inconclusive: 354%. For O=C(O)c1ncc(Cl)c(Cl)c1Cl, the lipid storage change, negative = inhibition was inconclusive: -17.2%. For O=[N+]([O-])c1cccc(/C=C2\CCC(/C=N/Nc3ccc4ccccc4n3)=C2N2CCOCC2)c1, the lipid storage change, negative = inhibition was inconclusive: 11.9%. With COC(=O)c1cc2c(ccn2-c2ccc(F)cc2)n1CC(=O)N1CCN(C(=O)c2ccco2)CC1 the Potency was inconclusive: 1.03 µM [activator, partial curve, poor fit]. With C=CCn1c(=O)c(C(C)=O)cn(N(C)c2ncc(C(F)(F)F)cc2Cl)c1=O the lipid storage change, negative = inhibition was inconclusive: 38%. For Cc1c(N=C2Nc3cccc4cccc2c34)c(=O)n(-c2ccccc2)n1C, the lipid storage change, negative = inhibition was inconclusive: 66.8%. For CC1C2(C)OC(=N)C(C#N)(C(C)O2)C1(C#N)C#N (centres undefined), the lipid storage change, negative = inhibition was inconclusive: 9.45%. In the case of Cc1cc(C)n2nc(C(=O)N3CCN(Cc4ccc5c(c4)OCO5)CC3)nc2n1, the Potency is reported as inconclusive: 1.03 µM [falling, partial curve]. With Cc1cccc(C(=O)Nc2ccc(NC(=O)c3ccccc3)cc2)c1 the Potency was inconclusive: 18.4 µM [falling, single point]. In the case of CCOc1ccc(-n2c(SC)nc3c(c2=O)SCC3)cc1, the Potency is reported as inconclusive: 0.082 µM [falling, full curve]. For CN1CCCN(C(=O)Cc2c(Cl)cccc2Cl)c2nc3ccccc3nc21, the Potency was inconclusive: 4.11 µM [activator, full curve, poor fit]. With COc1ccc2oc(C(=O)Nc3nc(C)cs3)c(C)c2c1 the Potency was inconclusive: 6.51 µM [falling, single point]. With COc1cccc(/C=N/NC(=O)c2nc(-c3ccccc3)cc(-c3ccccc3)n2)c1 the Potency was active: 20.6 µM. For N#Cc1ccc(CN2CCN(C(=O)CNC(=O)Cc3ccccc3)CC2)cc1, the lipid storage change, negative = inhibition was “inconclusive”. For O=C(C/C=N\OCc1ccc([N+](=O)[O-])cc1)Nc1ccc(Cl)cc1, the lipid storage change, negative = inhibition was inconclusive: -5.2%. For Cc1ccc(NC(=O)N2CCC(C(=O)c3ccc(F)cc3)CC2)cc1, the Potency was inconclusive: 6.51 µM [activator, single point]. With CN(C)CC/C=C1\c2cc(F)ccc2CSc2ccccc21 the lipid storage change, negative = inhibition was inconclusive: -23.7%. In the case of CCCCCCCN(C(=O)CCl)c1cccc(C)c1, the Potency is reported as inconclusive: 20.6 µM [cytotoxic, single point]. In the case of CC(=O)C1=C(O)C(=O)N(CCC(=O)O)C1c1ccccc1[N+](=O)[O-] (centres undefined), the lipid storage change, negative = inhibition is reported as inconclusive: -15.3%. For CCn1c(COc2ccc(C)cc2)nnc1SCC(=O)Nc1ccc2c(c1)OCCO2, the Potency was inconclusive: 0.164 µM [falling, full curve, poor fit]. For COc1cc(/C=C2/C(=N)N3N=C(C(C)C)SC3=NC2=O)ccc1OS(=O)(=O)c1ccccc1, the lipid storage change, negative = inhibition was inconclusive: -100%. In the case of COc1ccc(CNC(=O)COC(=O)CCn2c(C)csc2=O)cc1OC, the lipid storage change, negative = inhibition is reported as inconclusive: 67%. In the case of c1ccc(C2Oc3ccccc3C3CC(c4cccs4)=NN32)cc1 (centres undefined), the lipid storage change, negative = inhibition is reported as inconclusive: -29.7%. For COc1ccc(S(=O)(=O)Nc2ccc3oc(C)c(C(C)=O)c3c2)cc1, the Potency was inconclusive: 2.06 µM [activator, partial curve]. For Cc1cc(Br)c2c(c1)/C(=C/C(=O)c1cccs1)C(=O)N2, the lipid storage change, negative = inhibition was inconclusive: -6.43% [at 9.22 µM]. With COc1cccc(NC(=S)N/N=C2\CC(C)(C)Oc3ccc(O)cc32)c1 the lipid storage change, negative = inhibition was inconclusive: 6.94%. With COC(c1ccccc1)c1nnc(CCC(=O)NCc2ccc3ncccc3c2)o1 (centres undefined) the lipid storage change, negative = inhibition was inconclusive: -21.9%. In the case of COC(=O)c1ccc(NCCC(=O)O)cc1, the lipid storage change, negative = inhibition is reported as inconclusive: -9.04%. For Cc1c(NC(=O)/C=C/c2ccc(S(=O)(=O)N3CCOCC3)cc2)c(=O)n(-c2ccccc2)n1C, the “lipid storage change, negative = inhibition” value was inactive: 5.25%. In the case of C=CCn1c(=O)c2c(nc(-n3nc(C)cc3C)n2C)n(C)c1=O, the “outcome” value is reported as “inactive [at 46.1 µM]”. For C(=N\N1CCN(C2c3ccccc3-c3ccccc32)CC1)/c1ccncc1, the lipid storage change, negative = inhibition was inconclusive: 27%. In the case of COc1cc(Cl)ccc1OCc1cc(C(=O)NC(C)Cc2cnccn2)no1 (centres undefined), the Potency is reported as inconclusive: 0.116 µM [activator, full curve, poor fit]. With NC(=O)c1ccccc1Br the lipid storage change, negative = inhibition was inconclusive: -14.9%. With Cc1ccc(NC(=S)N2CCN(S(C)(=O)=O)CC2)cc1C the lipid storage change, negative = inhibition was inconclusive: 51.4%. In the case of COc1cc(CCC(=O)N2CC(C)OC(C)C2)cc(OC)c1OC (centres undefined), the Potency is reported as inconclusive: 32.6 µM [falling, single point]. In the case of COc1ccccc1NC(=O)c1ccc(N2CC3CC(C2)c2cccc(=O)n2C3)c(NC(=O)c2ccncc2)c1 (centres undefined), the lipid storage change, negative = inhibition is reported as inconclusive: -11.7%.
